In PubChem BioAssay AID1487 (National Center for Advancing Translational Sciences (NCATS), 2009):
This is one part of the list. Further columns of the screen follow, without active or inactive calls. Compounds called inactive in the main read-out are mostly missing here. Words in brackets tell the shape of the fitted curve; partial curves, single points and poor fits give uncertain potencies.

Test: qHTS Assay for Modulators of Lamin A Splicing
Conditions: HeLa LMNA splicing GFP/RFP minigene ratio, 48 h
In short: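 S3 HeLa stable clones carrying a lamin A-EGFP splicing minigene plus DsRed2 were seeded at 600 cells/well in Opti-MEM with 2% FBS, pin-dosed and incubated 48 h at 37°C. Acumen cytometry (488 nm) gave the GFP/RFP total-intensity ratio.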

[1] = measured here: RFP viability control channel
[2] = measured here: GFP splicing reporter channel

| Compound | AC50 [1] | AC50 [2] |
| --- | --- | --- |
| CCOC(=O)N1CCc2c(sc(NC(=O)c3ccc(S(=O)(=O)N4CCCC4)cc3)c2C#N)C1 | 3.55 µM [rising, single point] |  |
| COC(=O)N/N=C\c1cc(Br)ccc1OCc1ccccc1 | 35.5 µM [rising, single point] | 11.2 µM [rising, partial curve, poor fit] |
| Cc1cc(Nc2cccc([N+](=O)[O-])c2)n2c(nc3ccccc32)c1C#N | 2.82 µM [rising, full curve] |  |
| CCOC(=O)c1cc(-c2cccnc2)nn1-c1ccccc1 |  | 35.5 µM [falling, partial curve, poor fit] |
| Cc1ccc(C(=O)N2CCc3cc(CNS(=O)(=O)c4ccc(Cl)s4)ccc32)cc1 |  | 0.631 µM [rising, partial curve, poor fit] |
| Cc1ccc(C)c(N2CCN(C(=O)C3CCN(c4nc(-c5ccc(C(C)C)cc5)no4)CC3)CC2)c1 | 5.01 µM [falling, full curve, poor fit] |  |
| Cc1cccc(CNc2nc(-c3ccccc3CN(C)C)nc3ccccc23)c1 |  | 7.08 µM [rising, partial curve, poor fit] |
| O=C(CN1CCN(S(=O)(=O)c2cc(Cl)ccc2Cl)CC1)Nc1cccc(F)c1 | 22.4 µM [rising, single point] |  |
| O=C(c1cncc(Br)c1)N1CCN(c2ccc([N+](=O)[O-])cc2)CC1 | 12.6 µM [rising, partial curve, poor fit] | 8.91 µM [rising, partial curve, poor fit] |
| CC(C)Oc1c(Br)cc(Br)cc1/C=N/NC(N)=S | 10 µM [rising, partial curve] | 7.94 µM [rising, partial curve, poor fit] |
| COc1ccc(C2CC(c3cccs3)=NN2C(=O)c2ccc(Br)o2)cc1 (centres undefined) | 25.1 µM [rising, single point] |  |
| CC(=O)c1ccc(-c2ccc(C(=O)NC3CCCCCC3)o2)cc1 |  | 12.6 µM [falling, partial curve] |
| O=C(CSc1ccccn1)Nc1nc2c(ccc3ccccc32)s1 | 14.1 µM [rising, single point] |  |
| COc1ccc(S(=O)(=O)n2cnc3cc(C)c(C)cc32)cc1 | 12.6 µM [rising, single point] |  |
| CCOC(=O)CSC1=C(C#N)C(c2ccc3c(c2)OCO3)CC(=O)N1 (centres undefined) | 35.5 µM [rising, single point] |  |
| CCCCOC(=O)Cn1c(=O)c2c(nc(Br)n2Cc2ccccc2)n(C)c1=O | 15.8 µM [rising, single point] |  |
| O=C(Nc1nncs1)c1cccc(S(=O)(=O)N2CCc3ccccc32)c1 |  | 12.6 µM [falling, partial curve, poor fit] |
| COc1cc(C(=O)Nc2nc(-c3cccs3)cs2)cc(OC)c1OC | 35.5 µM [falling, single point] | 25.1 µM [falling, single point] |
| N#Cc1c(NC(=O)c2cnn3cccnc23)sc2c1CCCC2 |  | 0.158 µM [falling, full curve, poor fit] |

| Compound | AC50 [1] | AC50 [2] |
| --- | --- | --- |
| COc1cccc(CNC(=O)c2cc3c(C)nc4ccccc4c3o2)c1 | 17.8 µM [rising, partial curve] |  |
| CN1/C(=C\C=N\NC(=O)c2ccc(O)cc2)C(C)(C)c2ccccc21 | 15.8 µM [rising, single point] |  |
| CCN1CCCC1CNC(=O)CSc1cc(=O)n(C)c2cc(Cl)ccc12 (centres undefined) | 15.8 µM [rising, single point] |  |
| CNC(=O)C(Sc1ccccc1)c1ccccc1 (centres undefined) | 3.55 µM [falling, single point] |  |
| CC1=C(CC(=O)c2ccc(Cl)cc2)C(=O)c2ccccc2C1=O | 14.1 µM [falling, partial curve] | 35.5 µM [falling, single point] |
| O=C(O)P(=O)(O)O | 0.355 µM [falling, partial curve] | 0.355 µM [falling, partial curve] |
| O=C(O)/C=C/c1cccc(OCc2ccccc2)c1 |  | 1.58 µM [rising, partial curve, poor fit] |
| Cc1nc(SCC(=O)NC(C)(C#N)C2CC2)c2c(-c3cccs3)csc2n1 (centres undefined) | 11.2 µM [rising, partial curve] |  |
| N#CCc1ccc(NC(=O)/C=C/c2ccc([N+](=O)[O-])o2)cc1 | 5.01 µM [falling, partial curve] | 0.631 µM [falling, full curve] |
| COc1ccc(Cl)cc1Nc1sc(C(=O)c2ccccc2)c(N)c1C(=O)Nc1ccccc1 | 20 µM [rising, single point] |  |
| CC(=O)N1CCc2cc(CNS(=O)(=O)c3ccc(F)cc3)ccc21 |  | 0.562 µM [rising, single point] |
| OCCCNc1c2c(nc3cc(-c4ccc(Cl)cc4)nn13)CCC2 |  | 1 µM [rising, full curve, poor fit] |
| COc1ccc(NS(=O)(=O)c2ccc3oc4ccccc4c3c2)cn1 | 8.91 µM [rising, partial curve, poor fit] |  |
| CC1(C)OC2C(CO)OC(n3cnc4c(=S)nc[nH]c43)C2O1 (centres undefined) | 0.0891 µM [falling, full curve, poor fit] |  |
| CC(C)(C)n1nnnc1C(c1cccs1)N(Cc1cccnc1)Cc1ccccc1Cl (centres undefined) |  | 35.5 µM [falling, single point] |
| CCCCCCCCCCCCCCCC[N+](C)(C)CCN(Cc1ccc(OC)cc1)c1ncccn1 | 7.08 µM [rising, partial curve, poor fit] | 5.62 µM [falling, partial curve, poor fit] |
| O=C1OCC2=C1C(c1ccccc1)CC(=O)N2c1cccc(F)c1 (centres undefined) |  | 11.2 µM [falling, single point] |
| N#Cc1c(NC(=O)CSc2n[nH]c(N)n2)oc(-c2ccccc2)c1-c1ccccc1 |  | 1.41 µM [rising, partial curve] |
| O=C(CCc1c[nH]c2ccccc12)NCC(=O)Nc1ccc(F)c(F)c1F | 39.8 µM [rising, partial curve, poor fit] |  |

Quoted at random: 2 compounds from above, in no set order.

| Compound | AC50 [1] | AC50 [2] |
| --- | --- | --- |
| O=C(CCc1c[nH]c2ccccc12)NCC(=O)Nc1ccc(F)c(F)c1F | 39.8 µM [rising, partial curve, poor fit] |  |
| N#CCc1ccc(NC(=O)/C=C/c2ccc([N+](=O)[O-])o2)cc1 | 5.01 µM [falling, partial curve] | 0.631 µM [falling, full curve] |

(next part)

| Compound | AC50 [1] | AC50 [2] |
| --- | --- | --- |
| CCOC(=O)N1CCN(C(=O)c2noc(C(C)C)c2[N+](=O)[O-])CC1 | 0.251 µM [falling, full curve, poor fit] | 0.282 µM [falling, full curve, poor fit] |
| O=C(NCCCN1CCN(c2ccccc2F)CC1)Nc1ccc(F)cc1 | 5.62 µM [falling, single point] | 3.98 µM [falling, partial curve, poor fit] |
| O=C(Cn1cnc2c(cnn2-c2ccccc2)c1=O)Nc1cc(S(=O)(=O)N2CCOCC2)ccc1Cl | 20 µM [rising, partial curve] | 8.91 µM [rising, partial curve, poor fit] |
| CC(=O)Nc1cc(C(=O)N2CCc3ccccc3C2)ccc1Sc1ccc(F)cc1 | 22.4 µM [rising, single point] | 15.8 µM [rising, single point] |
| CC(=O)c1ccc(NS(=O)(=O)c2ccc3ccccc3c2)cc1 | 14.1 µM [rising, partial curve] | 1.78 µM [rising, full curve, poor fit] |
| Cn1cnnc1SCc1ccc(C(=O)N=Nc2c(O)n(Cc3ccc(Cl)cc3)c3ccccc23)cc1 | 35.5 µM [rising, single point] | 17.8 µM [rising, partial curve] |
| O=C(c1cnccn1)N1CCN(S(=O)(=O)c2ccc3ccccc3c2)CC1 | 15.8 µM [rising, single point] |  |
| CCOC(=O)N/N=C/c1ccc(N(CC)CC)cc1O | 14.1 µM [rising, partial curve] | 7.94 µM [rising, partial curve] |
| NC(=O)CSc1nc2c(c(=O)n1-c1ccccc1)C1(CCCCC1)Cc1ccccc1-2 | 8.91 µM [rising, partial curve] |  |
| O=C(O)CCCCCn1c(SCC(=O)c2ccc(O)c(O)c2)nc2ccsc2c1=O |  | 31.6 µM [rising, single point] |
| CCOc1ccc(S(=O)(=O)N2CCC(C(N)=O)CC2)c2ccccc12 | 10 µM [rising, partial curve] |  |
| O=C(CSc1nnc(-c2c[nH]c3ccccc23)o1)N1CCCCC1 | 31.6 µM [rising, single point] |  |
| CC(OC(=O)c1ccccc1O)C(=O)Nc1ccc(Cl)cn1 (centres undefined) | 2.51 µM [falling, partial curve] |  |
| CC(C)c1ccc(NC(=O)c2ccc(NS(C)(=O)=O)cc2)cc1 | 8.91 µM [rising, partial curve] | 0.398 µM [rising, partial curve, poor fit] |
| CN(C)CCCCSC(=N)N |  | 2.82 µM [rising, partial curve, poor fit] |
| CC(CCN(C)C)OC(=O)c1ccc(C(C)c2ccccc2)o1 (centres undefined) | 35.5 µM [rising, single point] |  |
| CC(C)CCNC(=O)C1CCN(c2nc3ccccc3o2)CC1 | 22.4 µM [rising, single point] |  |
| CCN(CC)CCn1c(SCC(=O)NCc2ccccc2)nc2c(sc3ccccc32)c1=O |  | 0.0282 µM [rising, full curve, poor fit] |
| O=C(c1ccc(F)cc1)[C@@H]1[C@@H](C(=O)c2ccccc2)[C@@]2(C(=O)Nc3ccccc32)[C@H]2c3ccccc3C=CN12 | 0.00355 µM [rising, full curve, poor fit] | 0.891 µM [rising, partial curve, poor fit] |
